# The list shows a part of the results. Most entries show no effect beyond the scatter of the controls.
# Amino acid sequences for entries named in this document (tags omitted). A change or cut given only in a name is not applied to a line headed by its entry.
# UniProt Q6KCD5: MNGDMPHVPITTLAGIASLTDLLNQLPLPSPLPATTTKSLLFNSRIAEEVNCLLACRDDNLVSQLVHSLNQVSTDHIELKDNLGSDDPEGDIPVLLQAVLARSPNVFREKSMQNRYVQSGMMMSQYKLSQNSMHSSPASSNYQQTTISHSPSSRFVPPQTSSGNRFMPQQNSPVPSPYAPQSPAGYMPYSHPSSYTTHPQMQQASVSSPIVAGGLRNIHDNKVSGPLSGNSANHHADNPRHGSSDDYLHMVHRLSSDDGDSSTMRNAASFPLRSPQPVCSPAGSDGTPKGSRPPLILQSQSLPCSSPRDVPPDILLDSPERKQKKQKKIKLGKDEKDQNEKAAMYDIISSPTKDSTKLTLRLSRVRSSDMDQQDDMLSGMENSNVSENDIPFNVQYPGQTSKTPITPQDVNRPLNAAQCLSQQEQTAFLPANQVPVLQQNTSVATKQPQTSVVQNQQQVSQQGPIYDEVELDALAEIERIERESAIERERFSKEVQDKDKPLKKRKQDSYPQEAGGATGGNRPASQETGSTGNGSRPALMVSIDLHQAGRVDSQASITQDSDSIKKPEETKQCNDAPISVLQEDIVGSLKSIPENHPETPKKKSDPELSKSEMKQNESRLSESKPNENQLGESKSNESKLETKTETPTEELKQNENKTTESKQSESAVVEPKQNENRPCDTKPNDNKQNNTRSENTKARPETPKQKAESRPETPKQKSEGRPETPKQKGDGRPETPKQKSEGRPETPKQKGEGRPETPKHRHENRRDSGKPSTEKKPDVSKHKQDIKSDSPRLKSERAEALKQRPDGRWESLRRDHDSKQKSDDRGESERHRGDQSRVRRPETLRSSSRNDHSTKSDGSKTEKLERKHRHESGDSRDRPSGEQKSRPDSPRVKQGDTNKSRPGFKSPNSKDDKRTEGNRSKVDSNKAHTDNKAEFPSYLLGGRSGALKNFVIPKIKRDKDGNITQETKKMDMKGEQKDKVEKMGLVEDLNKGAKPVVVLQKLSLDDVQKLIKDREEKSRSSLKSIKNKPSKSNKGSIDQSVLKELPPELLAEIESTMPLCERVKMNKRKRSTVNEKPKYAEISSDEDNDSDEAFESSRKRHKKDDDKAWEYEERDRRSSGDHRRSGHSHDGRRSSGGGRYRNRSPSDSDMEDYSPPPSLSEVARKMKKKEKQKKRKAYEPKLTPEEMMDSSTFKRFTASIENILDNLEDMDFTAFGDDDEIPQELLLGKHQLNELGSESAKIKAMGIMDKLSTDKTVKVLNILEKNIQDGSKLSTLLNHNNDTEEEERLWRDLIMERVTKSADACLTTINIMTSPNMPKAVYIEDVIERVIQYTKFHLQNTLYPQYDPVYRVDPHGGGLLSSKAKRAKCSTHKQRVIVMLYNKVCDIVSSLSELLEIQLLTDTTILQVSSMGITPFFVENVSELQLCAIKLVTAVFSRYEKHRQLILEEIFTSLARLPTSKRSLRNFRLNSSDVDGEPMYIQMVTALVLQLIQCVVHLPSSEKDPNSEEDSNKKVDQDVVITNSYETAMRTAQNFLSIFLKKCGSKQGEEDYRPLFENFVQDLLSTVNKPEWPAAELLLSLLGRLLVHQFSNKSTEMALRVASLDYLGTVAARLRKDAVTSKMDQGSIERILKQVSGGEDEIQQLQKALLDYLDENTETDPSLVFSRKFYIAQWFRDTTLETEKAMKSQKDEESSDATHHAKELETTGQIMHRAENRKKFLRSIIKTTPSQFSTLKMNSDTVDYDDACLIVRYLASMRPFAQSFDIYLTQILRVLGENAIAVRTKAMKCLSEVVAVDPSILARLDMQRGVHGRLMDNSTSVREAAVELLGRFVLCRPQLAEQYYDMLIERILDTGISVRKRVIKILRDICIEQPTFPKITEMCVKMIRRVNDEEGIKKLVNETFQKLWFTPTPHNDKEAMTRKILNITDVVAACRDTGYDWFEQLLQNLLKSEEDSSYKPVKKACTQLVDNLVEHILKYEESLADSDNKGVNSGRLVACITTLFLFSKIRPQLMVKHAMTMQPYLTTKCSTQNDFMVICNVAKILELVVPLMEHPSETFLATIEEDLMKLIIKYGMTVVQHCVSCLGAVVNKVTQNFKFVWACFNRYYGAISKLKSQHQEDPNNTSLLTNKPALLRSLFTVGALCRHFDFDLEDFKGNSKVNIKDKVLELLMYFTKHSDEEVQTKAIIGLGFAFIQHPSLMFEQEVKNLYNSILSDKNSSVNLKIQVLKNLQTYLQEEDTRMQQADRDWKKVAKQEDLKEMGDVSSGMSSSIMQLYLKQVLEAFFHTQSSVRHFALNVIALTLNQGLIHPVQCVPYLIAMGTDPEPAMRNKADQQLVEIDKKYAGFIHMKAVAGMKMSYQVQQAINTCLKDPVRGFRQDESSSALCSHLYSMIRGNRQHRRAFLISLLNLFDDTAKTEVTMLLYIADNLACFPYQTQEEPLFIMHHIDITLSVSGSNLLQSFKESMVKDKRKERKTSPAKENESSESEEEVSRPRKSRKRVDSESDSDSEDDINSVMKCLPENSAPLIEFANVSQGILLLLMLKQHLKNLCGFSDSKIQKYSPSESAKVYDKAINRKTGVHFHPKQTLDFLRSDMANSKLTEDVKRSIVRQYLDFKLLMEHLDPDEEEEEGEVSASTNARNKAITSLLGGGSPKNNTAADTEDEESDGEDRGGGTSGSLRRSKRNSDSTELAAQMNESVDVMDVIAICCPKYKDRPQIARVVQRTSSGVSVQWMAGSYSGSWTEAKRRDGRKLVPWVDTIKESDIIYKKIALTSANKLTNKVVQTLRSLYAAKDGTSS
# UniProt Q5XJY4: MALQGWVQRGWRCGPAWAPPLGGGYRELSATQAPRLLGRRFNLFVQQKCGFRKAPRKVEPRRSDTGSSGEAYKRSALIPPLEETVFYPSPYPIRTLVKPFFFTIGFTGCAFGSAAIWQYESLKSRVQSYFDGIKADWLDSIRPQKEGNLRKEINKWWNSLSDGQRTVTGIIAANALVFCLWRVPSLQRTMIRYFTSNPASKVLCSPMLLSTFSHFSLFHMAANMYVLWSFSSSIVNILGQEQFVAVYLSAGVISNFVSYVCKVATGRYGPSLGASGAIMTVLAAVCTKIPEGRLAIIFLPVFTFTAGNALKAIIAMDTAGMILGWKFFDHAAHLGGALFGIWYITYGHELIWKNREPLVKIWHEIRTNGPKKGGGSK
# UniProt Q61391: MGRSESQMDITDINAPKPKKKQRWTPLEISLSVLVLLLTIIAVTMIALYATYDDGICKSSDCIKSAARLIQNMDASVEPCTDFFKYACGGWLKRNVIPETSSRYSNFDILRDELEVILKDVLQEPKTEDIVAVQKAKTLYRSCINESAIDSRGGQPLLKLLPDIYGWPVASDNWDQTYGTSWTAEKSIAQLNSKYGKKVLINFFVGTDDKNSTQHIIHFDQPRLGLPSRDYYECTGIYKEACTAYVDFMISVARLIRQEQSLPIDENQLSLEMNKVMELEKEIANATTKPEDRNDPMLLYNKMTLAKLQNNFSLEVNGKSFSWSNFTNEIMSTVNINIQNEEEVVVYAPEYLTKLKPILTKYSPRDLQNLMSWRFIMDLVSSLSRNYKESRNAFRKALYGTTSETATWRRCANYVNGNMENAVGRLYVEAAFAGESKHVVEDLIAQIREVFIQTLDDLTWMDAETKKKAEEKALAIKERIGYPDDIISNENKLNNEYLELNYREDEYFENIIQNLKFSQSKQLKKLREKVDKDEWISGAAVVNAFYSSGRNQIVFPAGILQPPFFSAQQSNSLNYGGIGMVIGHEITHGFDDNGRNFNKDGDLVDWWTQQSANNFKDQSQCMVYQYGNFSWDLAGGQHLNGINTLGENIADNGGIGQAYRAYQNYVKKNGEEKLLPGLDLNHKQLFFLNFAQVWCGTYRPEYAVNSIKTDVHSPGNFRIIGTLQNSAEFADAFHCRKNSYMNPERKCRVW
# UniProt Q61179: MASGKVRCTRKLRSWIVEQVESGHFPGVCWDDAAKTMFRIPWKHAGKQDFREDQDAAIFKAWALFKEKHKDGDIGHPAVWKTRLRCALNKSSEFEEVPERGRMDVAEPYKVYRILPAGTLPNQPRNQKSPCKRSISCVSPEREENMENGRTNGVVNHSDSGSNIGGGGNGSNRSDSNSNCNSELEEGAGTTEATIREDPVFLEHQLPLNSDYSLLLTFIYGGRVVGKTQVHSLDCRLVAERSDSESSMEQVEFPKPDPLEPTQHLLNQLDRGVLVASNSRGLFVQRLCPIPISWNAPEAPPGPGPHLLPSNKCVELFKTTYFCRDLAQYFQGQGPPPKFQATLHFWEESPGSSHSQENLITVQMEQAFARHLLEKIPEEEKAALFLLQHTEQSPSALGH
# UniProt Q5SUE8: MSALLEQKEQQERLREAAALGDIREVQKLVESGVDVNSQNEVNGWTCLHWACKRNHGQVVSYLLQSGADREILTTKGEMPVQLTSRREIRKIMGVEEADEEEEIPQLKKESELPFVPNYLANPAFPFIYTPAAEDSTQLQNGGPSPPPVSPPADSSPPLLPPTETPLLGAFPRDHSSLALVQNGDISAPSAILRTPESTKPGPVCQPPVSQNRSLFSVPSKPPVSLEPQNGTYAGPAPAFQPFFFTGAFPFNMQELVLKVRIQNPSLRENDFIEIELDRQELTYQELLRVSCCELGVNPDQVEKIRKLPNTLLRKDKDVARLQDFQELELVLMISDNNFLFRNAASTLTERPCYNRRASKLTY
# UniProt Q5SUF2: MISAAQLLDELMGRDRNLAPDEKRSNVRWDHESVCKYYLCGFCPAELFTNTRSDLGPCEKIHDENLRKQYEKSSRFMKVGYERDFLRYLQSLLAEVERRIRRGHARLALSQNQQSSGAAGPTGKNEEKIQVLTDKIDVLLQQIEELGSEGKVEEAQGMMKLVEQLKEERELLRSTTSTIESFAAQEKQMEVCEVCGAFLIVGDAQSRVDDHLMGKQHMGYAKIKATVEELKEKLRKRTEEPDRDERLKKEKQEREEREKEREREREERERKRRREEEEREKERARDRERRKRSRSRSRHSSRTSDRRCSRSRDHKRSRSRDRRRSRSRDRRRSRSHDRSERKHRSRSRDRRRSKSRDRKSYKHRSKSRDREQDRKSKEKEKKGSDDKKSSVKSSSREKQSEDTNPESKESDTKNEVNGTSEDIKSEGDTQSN
# UniProt Q61093: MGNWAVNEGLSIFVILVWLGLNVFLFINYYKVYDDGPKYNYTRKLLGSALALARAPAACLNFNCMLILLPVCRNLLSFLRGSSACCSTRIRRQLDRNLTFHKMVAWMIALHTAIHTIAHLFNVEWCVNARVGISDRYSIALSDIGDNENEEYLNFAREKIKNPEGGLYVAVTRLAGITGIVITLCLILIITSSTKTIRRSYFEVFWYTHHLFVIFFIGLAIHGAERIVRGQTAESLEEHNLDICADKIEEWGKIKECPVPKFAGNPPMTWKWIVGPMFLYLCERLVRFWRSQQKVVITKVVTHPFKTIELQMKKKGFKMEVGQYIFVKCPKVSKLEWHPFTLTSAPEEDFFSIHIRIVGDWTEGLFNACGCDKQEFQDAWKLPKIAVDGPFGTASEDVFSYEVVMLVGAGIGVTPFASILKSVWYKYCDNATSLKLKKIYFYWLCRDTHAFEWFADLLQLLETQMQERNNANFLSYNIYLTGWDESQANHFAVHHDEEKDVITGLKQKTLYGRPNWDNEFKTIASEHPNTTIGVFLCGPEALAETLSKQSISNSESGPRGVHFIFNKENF
# UniProt Q62393: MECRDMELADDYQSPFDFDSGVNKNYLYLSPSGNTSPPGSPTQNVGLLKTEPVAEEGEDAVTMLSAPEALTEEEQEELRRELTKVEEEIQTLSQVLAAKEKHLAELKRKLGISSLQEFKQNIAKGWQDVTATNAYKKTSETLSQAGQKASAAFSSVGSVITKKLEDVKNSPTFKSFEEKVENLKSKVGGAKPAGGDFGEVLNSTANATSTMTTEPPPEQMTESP
# UniProt Q64462: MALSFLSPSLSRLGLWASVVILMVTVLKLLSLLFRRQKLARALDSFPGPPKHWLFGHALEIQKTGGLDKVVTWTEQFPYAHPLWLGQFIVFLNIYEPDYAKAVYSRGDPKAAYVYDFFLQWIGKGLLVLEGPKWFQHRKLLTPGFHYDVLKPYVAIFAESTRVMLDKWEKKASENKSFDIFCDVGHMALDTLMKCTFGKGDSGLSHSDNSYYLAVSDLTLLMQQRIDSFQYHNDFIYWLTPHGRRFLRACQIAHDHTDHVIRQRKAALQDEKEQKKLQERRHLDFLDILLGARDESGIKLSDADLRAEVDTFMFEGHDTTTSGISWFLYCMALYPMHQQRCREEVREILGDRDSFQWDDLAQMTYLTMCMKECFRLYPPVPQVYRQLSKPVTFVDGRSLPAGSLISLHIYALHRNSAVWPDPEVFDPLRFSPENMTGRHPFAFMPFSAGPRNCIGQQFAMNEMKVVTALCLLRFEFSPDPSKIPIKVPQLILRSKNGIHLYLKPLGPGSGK
# UniProt Q6NT99: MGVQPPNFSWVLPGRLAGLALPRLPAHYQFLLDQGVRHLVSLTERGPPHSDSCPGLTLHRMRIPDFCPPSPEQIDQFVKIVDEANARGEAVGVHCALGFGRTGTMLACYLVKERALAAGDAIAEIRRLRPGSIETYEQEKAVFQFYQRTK
# Compound: CN[C@@H]1C[C@H]2O[C@@](C)([C@@H]1OC)n1c3ccccc3c3c4c(c5c6ccccc6n2c5c31)C(=O)NC4 [staurosporine]
# Assay: log2 fold change of pooled soluble protein (PISA), ligand vs vehicle (log2 ratio); higher = more thermally stabilized
# Details: ligand concentration: 20 uM; assay format: PISA pool 52.9/55.5/58.6 C
row,Target,log2 fold change of pooled soluble protein
1,UniProt Q61334,-0.113
2,UniProt Q6KCD5,0.0194
3,UniProt Q6A098,0.0164
4,UniProt Q62230,-0.0664
5,UniProt Q5XJY4,-0.107
6,UniProt Q68FD5,-0.0409
7,UniProt Q61391,-0.0485
8,UniProt Q68FE2,0.142
9,UniProt Q61179,-0.0813
10,UniProt Q5SUE8,-0.113
11,UniProt Q69ZR2,-0.139
12,UniProt Q5SUF2,0.0102
13,UniProt Q61093,-0.236
14,UniProt Q62313,0.106
15,UniProt Q69ZS7,0.248
16,UniProt Q60738,0.0243
17,UniProt Q60634,-0.0722
18,UniProt Q63836,0.0922

row,Target,log2 fold change of pooled soluble protein
1,UniProt Q640M1,0.162
2,UniProt Q64092,-0.0975
3,UniProt Q61578,-0.188
4,UniProt Q61315,-0.165
5,UniProt Q62203,0.313
6,UniProt Q60597,-0.0764
7,UniProt Q66GT5,-0.203
8,UniProt Q5SVQ0,-0.0961
9,UniProt Q62393,0.0784
10,UniProt Q60973,-0.497
11,UniProt Q61129,0.000721
12,UniProt Q64462,0.0674
13,UniProt Q6NT99,-0.125
14,UniProt Q61072,0.0933
15,UniProt Q60631,-0.074
16,UniProt Q62448,-0.0419
17,UniProt Q5XKN4,0.224
18,UniProt Q60991,0.482

# Looked up above:
# UniProt Q61129 | log2 fold change of pooled soluble protein: 0.000721
# UniProt Q60991 | log2 fold change of pooled soluble protein: 0.482

# Source: the supplement of paper PMC12819154, “High-throughput peptide-centric local stability assay extends protein–ligand identification to membrane proteins, tissues and bacteria” (Nature Structural & Molecular Biology, 2025)
